Results: publication PMC7048138
These are yes or no findings as the source states them, for the method shown. A result given as binding can be weak or reduced; the word gives no strength.

Molecular target: T1, mCherryFP-TgDCX (full-length wild-type TgDCX, mCherryFP at the N-terminus) (Toxoplasma gondii) (UniProt B6KAS6)
T1 sequence: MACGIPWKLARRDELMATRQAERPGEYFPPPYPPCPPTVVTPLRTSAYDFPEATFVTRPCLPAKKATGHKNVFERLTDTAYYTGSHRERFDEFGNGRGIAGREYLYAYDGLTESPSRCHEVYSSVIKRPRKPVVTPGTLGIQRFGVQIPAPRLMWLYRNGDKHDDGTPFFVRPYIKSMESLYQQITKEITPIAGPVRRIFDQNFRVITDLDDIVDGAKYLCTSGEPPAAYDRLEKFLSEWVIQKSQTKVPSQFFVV
Test: fluorescence microscopy of FP-tagged protein on microtubules in cells

In the case of mCerulean3FP-TgCPH1 (Toxoplasma gondii), the binding is reported as “binds”.
